Drawing on article PMC5867095, this text covers binding for one substance.

The chains behind the UniProt entries cited, without tags or fusion partners.
UniProt O43524: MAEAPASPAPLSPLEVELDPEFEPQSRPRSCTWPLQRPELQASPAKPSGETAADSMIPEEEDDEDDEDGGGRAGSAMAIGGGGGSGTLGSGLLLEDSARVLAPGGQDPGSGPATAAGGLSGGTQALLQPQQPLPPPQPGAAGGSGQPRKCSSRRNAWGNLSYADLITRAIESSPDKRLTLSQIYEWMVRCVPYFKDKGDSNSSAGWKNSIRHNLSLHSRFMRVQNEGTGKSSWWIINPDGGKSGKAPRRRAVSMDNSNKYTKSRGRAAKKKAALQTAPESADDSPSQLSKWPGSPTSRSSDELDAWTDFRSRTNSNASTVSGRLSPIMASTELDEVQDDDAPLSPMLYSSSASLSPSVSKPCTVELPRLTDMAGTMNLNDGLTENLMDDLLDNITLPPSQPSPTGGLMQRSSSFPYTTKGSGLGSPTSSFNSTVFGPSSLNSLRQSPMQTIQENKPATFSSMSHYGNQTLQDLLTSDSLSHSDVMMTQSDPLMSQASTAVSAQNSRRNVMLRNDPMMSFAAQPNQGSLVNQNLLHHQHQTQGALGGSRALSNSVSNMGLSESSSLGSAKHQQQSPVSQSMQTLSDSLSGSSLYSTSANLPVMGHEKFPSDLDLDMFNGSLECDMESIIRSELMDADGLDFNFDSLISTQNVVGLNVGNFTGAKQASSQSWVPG
UniProt Q04206: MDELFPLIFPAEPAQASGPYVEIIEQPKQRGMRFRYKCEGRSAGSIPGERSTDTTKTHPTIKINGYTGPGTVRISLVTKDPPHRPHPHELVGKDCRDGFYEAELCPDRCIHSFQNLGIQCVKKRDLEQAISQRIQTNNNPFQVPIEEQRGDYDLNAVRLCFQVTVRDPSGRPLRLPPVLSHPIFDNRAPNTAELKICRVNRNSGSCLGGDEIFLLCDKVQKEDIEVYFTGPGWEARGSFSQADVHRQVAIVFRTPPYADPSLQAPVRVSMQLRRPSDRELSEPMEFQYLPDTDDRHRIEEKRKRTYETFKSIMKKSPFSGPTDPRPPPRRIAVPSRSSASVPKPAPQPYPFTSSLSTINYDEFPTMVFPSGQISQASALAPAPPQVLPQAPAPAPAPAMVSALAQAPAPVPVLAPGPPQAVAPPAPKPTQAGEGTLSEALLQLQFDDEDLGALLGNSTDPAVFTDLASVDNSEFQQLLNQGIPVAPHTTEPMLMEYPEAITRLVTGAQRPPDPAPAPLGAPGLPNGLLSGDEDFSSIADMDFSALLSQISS

These are yes or no findings as the source states them, for the method shown. In cells and extracts the contact can be indirect. Some binding calls cover weakened binding; strength is not graded here.

The target in the experiment is forkhead box class O3 (FoxO3) (human (endogenous in 16HBE)) (UniProt O43524). Briefly: co-IP; anti-FoxO3 added to 200 μg of nuclear extracts of 16HBE cells, overnight at 4°C, protein A/G agarose beads 2 hrs at 4°C; blotted against p65/NF-κB and FoxO3; cells cultured with/without 20% CSE for 24 hrs.

Consider “NF-κB subunit p65 (from UniProt Q04206 1-551)”, for which the binding entry is on record as “binds”.
